We go through five substances from publication PMC7335352.

Sequences of proteins named here, by UniProt entry; tags and fusion partners are left off. A change or cut given only in a name is not applied to a line headed by its entry.
UniProt Q15003: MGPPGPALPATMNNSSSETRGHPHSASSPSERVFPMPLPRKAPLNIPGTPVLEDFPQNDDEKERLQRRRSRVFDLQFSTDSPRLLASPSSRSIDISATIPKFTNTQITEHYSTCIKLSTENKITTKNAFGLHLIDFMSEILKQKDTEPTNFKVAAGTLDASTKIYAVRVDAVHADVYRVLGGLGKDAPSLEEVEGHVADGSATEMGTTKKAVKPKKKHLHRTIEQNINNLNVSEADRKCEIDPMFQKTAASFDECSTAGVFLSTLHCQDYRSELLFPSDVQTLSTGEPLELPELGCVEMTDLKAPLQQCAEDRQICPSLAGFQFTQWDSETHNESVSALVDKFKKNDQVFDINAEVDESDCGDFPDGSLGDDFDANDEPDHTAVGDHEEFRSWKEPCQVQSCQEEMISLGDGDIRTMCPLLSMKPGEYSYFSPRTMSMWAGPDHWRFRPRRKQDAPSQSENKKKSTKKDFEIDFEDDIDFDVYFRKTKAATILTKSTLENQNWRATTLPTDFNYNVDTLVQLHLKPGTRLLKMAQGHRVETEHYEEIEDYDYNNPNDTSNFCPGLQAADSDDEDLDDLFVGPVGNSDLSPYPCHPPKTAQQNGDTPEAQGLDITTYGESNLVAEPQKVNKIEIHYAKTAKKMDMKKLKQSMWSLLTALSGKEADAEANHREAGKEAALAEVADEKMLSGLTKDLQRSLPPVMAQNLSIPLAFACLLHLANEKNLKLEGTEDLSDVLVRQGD
UniProt Q9NTJ3: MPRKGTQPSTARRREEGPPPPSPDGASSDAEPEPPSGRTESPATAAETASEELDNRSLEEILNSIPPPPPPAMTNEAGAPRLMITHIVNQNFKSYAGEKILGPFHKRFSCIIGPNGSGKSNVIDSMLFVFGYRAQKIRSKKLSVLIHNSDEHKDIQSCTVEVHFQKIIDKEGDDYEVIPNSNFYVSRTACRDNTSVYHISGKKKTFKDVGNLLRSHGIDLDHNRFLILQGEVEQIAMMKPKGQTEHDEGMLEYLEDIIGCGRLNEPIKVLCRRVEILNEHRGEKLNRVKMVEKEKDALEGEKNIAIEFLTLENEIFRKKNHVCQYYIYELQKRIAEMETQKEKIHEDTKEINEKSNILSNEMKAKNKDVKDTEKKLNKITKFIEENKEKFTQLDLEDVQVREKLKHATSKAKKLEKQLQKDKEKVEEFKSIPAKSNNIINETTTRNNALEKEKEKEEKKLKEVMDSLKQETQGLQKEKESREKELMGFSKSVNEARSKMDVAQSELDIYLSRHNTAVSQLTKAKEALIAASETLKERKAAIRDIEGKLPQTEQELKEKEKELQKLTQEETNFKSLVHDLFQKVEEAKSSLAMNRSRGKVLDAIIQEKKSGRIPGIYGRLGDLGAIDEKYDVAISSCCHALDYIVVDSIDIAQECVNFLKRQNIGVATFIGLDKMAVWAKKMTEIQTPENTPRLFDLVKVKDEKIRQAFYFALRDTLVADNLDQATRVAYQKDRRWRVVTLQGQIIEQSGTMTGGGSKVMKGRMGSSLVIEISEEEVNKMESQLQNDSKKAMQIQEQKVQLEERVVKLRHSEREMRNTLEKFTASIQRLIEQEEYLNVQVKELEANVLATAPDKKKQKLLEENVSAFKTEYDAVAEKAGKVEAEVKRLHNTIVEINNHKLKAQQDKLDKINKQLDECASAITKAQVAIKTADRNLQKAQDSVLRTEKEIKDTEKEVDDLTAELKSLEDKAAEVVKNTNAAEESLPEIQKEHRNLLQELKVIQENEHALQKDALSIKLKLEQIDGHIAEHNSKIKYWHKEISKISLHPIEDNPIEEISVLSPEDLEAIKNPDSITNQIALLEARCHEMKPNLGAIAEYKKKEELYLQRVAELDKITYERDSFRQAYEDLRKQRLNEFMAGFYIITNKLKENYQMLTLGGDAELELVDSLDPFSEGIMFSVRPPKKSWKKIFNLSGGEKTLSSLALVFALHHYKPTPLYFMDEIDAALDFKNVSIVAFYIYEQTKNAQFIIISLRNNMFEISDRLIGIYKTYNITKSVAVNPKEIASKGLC
UniProt Q15021: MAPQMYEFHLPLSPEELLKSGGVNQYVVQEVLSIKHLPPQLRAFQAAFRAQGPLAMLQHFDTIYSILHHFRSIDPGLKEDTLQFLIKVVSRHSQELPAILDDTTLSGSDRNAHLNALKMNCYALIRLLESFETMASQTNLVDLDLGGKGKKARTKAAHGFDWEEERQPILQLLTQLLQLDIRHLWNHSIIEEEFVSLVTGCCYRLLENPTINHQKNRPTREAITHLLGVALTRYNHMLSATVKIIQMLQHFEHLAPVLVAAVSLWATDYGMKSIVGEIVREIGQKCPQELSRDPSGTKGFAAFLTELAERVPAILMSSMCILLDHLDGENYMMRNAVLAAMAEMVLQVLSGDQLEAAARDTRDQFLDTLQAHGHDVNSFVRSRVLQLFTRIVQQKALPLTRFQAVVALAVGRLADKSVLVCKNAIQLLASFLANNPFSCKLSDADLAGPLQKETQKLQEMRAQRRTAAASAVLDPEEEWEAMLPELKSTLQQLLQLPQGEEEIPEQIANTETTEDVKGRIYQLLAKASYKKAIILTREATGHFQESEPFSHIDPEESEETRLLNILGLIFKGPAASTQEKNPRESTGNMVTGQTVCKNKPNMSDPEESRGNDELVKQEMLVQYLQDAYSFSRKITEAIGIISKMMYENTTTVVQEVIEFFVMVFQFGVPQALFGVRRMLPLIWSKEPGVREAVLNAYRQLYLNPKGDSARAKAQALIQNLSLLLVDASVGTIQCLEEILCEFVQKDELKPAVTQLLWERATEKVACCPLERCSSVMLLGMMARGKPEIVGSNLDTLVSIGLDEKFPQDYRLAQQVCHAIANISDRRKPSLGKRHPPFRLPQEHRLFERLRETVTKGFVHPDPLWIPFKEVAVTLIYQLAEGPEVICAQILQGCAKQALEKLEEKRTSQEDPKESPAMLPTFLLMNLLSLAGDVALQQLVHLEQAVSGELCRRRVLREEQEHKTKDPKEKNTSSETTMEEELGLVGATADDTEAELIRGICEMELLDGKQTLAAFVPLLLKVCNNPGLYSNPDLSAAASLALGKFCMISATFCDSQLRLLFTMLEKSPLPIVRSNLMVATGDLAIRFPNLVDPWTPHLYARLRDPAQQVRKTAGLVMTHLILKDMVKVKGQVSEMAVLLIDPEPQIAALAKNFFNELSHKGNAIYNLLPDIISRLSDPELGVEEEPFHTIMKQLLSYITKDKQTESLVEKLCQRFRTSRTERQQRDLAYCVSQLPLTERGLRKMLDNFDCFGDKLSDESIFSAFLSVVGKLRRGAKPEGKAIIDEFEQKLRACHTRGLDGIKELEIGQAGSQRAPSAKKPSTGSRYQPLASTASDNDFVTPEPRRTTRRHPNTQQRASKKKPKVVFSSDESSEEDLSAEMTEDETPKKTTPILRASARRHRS
UniProt O95347: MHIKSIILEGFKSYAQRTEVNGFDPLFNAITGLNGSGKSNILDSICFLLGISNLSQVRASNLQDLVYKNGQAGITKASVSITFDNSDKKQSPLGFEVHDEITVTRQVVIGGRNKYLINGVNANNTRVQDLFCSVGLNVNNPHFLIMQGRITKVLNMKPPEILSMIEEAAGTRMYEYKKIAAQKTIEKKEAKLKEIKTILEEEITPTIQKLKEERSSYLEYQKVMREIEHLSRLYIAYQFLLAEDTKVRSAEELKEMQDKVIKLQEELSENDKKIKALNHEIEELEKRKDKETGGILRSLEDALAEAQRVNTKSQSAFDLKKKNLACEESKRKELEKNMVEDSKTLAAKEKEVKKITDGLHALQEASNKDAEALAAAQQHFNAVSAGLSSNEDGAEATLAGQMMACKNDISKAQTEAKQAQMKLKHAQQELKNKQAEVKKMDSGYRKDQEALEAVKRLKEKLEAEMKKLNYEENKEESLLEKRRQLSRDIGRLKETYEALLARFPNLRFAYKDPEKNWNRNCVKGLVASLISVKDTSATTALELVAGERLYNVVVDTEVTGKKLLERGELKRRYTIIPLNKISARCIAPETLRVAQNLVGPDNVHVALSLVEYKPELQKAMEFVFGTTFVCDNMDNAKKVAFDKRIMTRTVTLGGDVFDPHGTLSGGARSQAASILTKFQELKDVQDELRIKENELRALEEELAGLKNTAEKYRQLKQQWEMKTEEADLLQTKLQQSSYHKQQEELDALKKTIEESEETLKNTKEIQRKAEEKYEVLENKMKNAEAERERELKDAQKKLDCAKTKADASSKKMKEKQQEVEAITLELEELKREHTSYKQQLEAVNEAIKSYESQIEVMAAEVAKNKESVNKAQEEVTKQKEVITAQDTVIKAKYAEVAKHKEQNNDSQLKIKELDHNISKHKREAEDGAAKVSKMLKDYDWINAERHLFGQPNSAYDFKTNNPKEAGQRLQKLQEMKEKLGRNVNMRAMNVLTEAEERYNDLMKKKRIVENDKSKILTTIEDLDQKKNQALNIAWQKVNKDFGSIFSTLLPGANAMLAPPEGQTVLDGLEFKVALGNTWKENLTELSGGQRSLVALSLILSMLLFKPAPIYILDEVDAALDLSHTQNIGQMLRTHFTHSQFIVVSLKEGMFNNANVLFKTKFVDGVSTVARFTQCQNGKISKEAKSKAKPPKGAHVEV

These are yes or no findings as the source states them, for the method shown. Some binding calls cover weakened binding; strength is not graded here.

For assay [1], the target named is CapH ybbR + 2x strep, labelled with Alexa Fluor 647 (human) (UniProt Q15003). As to the kind of experiment: SEC; purified ybbR-tagged complexes (wild type and Q-loop mutants) after Sfp labelling with CoA-Alexa647, Superose 6 10/300; subunits seen by SDS-PAGE; both purified.
Assay [2] addresses CapH 2x strep (human) (UniProt Q15003). Description: SEC; five subunits co-expressed in High Five cells; complex captured on StrepTrap HP, then HiTrap Heparin, then Superose 6 16/70 or Increase 10/300 in 20 mM HEPES pH 8, 300 mM KCl, 5 mM MgCl2, 1 mM DTT, 10% glycerol; peak checked by SDS-PAGE and MS/MS; both purified. A general note: Size exclusion chromatography separates by hydrodynamic size, large species first.

Assay [3] has the same target. As to the kind of experiment: cross-linking; purified condensin I and II complexes with 2 mM ATPγS, 3 mM DSBU, 25°C, 1 hour, 20 mM HEPES pH 8, 300 mM KCl, 10 mM MgCl2, 1% glycerol, 1 mM TCEP; LC-MS/MS, MeroX; crosslinks found at least 3 times; both purified.

As for “6x His SMC4 (from UniProt Q9NTJ3 1-1288)”, the binding entry (in assay [1]; in the assay with CapH 2x strep (human) [2]; with CapH 2x strep (human) [3]) was “binds” each time.
Turning to “6x His SMC4 Q229L (from UniProt Q9NTJ3 1-1288)”, the binding entry in assay [1] is “binds”.
Regarding CAP-D2 (from UniProt Q15021 1-1401), the binding result (in assay [1]; in the assay with CapH 2x strep (human) [2]; with CapH 2x strep (human) [3]) was “binds” in each case.
Take SMC2 (from UniProt O95347 1-1197): the binding result (in assay [1]; in the assay with CapH 2x strep (human) [2]; with CapH 2x strep (human) [3]) was “binds” each time.
SMC2 Q147L (from UniProt O95347 1-1197): the binding result in assay [1] is “binds”.
